Experimental data as given in PubChem BioAssay AID250 (DTP/NCI, 2004).
The list does not hold the whole screen: its compounds were picked by chemical class. Not every dose and run of a compound is shown. T/C: endpoint of the treated group in % of that of the vehicle group. Some doses have a count of surviving animals in place of a T/C: the source holds a T/C of zero for them, seemingly a mark for toxic or unscored doses. Counts of survivors are from the toxicity check (mostly the fifth day) where no day follows; animals may have died later. Schedules are NCI's codes, taken here to give the interval after Q, in days (D) or hours (H), and the number of doses after X. Some schedules carry Z or #; the key to these is not given. For survival time, the PubChem record calls one and a half times the control and up active, and a quarter to a half above the control has no call in these data; cut-offs in other NCI protocols can differ. Some T/C values are followed by the survivors on the day toxicity was checked, most often the fifth; where neither a count nor a note follows, no animal had died by that day.

System: BDF1 mice, L1210 leukemia sc, survival T/C
Assay: NCI In Vivo Anticancer Drug Screen. Data for tumor model L1210 Leukemia (subcutaneous) in B6D2F1 (BDF1) mice
Details: T/C endpoint: median survival time, schedule: Q01DX Z (sc), higher T/C = longer survival
Method: The antitumor activity of compounds was measured in mice bearing transplantable tumors. Survival or tumor size were measured and the results are expressed as the measurement made in the treated group (T) divided by the measurement made in the vehicle treated control group (C). The tumor model used in this assay is L1210 Leukemia (subcutaneous) in B6D2F1 (BDF1) mice

[1] = dose: 3.0 mg/kg/injection, vehicle: saline
[2] = dose: 8.4 mg/kg/injection, vehicle: saline
[3] = dose: 23.0 mg/kg/injection, vehicle: saline
[4] = dose: 39.0 mg/kg/injection, vehicle: methylcellulose (MC)
[5] = dose: 65.0 mg/kg/injection, vehicle: methylcellulose (MC)

## N/C(=N\[N+](=O)[O-])N(CCCl)N=O
dose: 1.08 mg/kg/injection, vehicle: saline
  T/C: 100 % of control
dose: 1.8 mg/kg/injection, vehicle: saline
  T/C: 100 % of control
[1]
  T/C: 110 % of control [9 of 10 alive]
dose: 5.0 mg/kg/injection, vehicle: saline
  T/C: 110 % of control
[2]
  T/C: 100 % of control
dose: 14.0 mg/kg/injection, vehicle: saline
  T/C: 110 % of control
[3]
  T/C: 100 % of control [8 of 10 alive]
dose: 39.0 mg/kg/injection, vehicle: saline
  T/C: 110 % of control [9 of 10 alive]
dose: 65.0 mg/kg/injection, vehicle: saline
  T/C: 100 % of control

## CN(CCCl)CC1OC(O)C(O)C(O)C1O (configuration not stated)
dose: 78.0 mg/kg/injection, vehicle: methylcellulose (MC)
  survivor count: 1 of 8
dose: 130.0 mg/kg/injection, vehicle: methylcellulose (MC)
  survivor count: 3 of 8
dose: 216.0 mg/kg/injection, vehicle: methylcellulose (MC)
  survivor count: 3 of 8
dose: 360.0 mg/kg/injection, vehicle: methylcellulose (MC)
  survivor count: 1 of 8
dose: 600.0 mg/kg/injection, vehicle: methylcellulose (MC)
  survivor count: 0 of 8

## CCN(CCCl)Cc1ccc2c(c1)OCO2
dose: 8.4 mg/kg/injection, vehicle: other
  T/C: 100 % of control
dose: 14.0 mg/kg/injection, vehicle: other
  T/C: 95 % of control
dose: 23.0 mg/kg/injection, vehicle: other
  T/C: 95 % of control
dose: 39.0 mg/kg/injection, vehicle: other
  T/C: 100 % of control [9 of 10 alive]
dose: 65.0 mg/kg/injection, vehicle: other
  survivor count: 3 of 10
dose: 108.0 mg/kg/injection, vehicle: other
  survivor count: 0 of 10

## CCOC(=O)COc1cccc(N(CCCl)CCCl)c1
[4]
  T/C: 100 % of control [8 of 10 alive]
[5]
  T/C: 100 % of control
dose: 108.0 mg/kg/injection, vehicle: methylcellulose (MC)
  T/C: 100 % of control [8 of 10 alive]
dose: 180.0 mg/kg/injection, vehicle: methylcellulose (MC)
  T/C: 100 % of control [9 of 10 alive]
dose: 300.0 mg/kg/injection, vehicle: methylcellulose (MC)
  T/C: 105 % of control

## CCN(CCCl)Cc1ccc(C(C)C)cc1
[1]
  T/C: 100 % of control
[2]
  T/C: 105 % of control
[3]
  T/C: 100 % of control

## N/C(=N/[N+](=O)[O-])N(CCBr)N=O.NC1=CCCN1[N+](=O)[O-]
dose: 1.08 mg/kg/injection, vehicle: methylcellulose (MC)
  T/C: 100 % of control
dose: 1.8 mg/kg/injection, vehicle: methylcellulose (MC)
  T/C: 110 % of control
dose: 3.0 mg/kg/injection, vehicle: methylcellulose (MC)
  T/C: 100 % of control
dose: 5.0 mg/kg/injection, vehicle: methylcellulose (MC)
  T/C: 110 % of control [9 of 10 alive]
dose: 8.4 mg/kg/injection, vehicle: methylcellulose (MC)
  T/C: 110 % of control
dose: 14.0 mg/kg/injection, vehicle: methylcellulose (MC)
  T/C: 110 % of control
dose: 23.0 mg/kg/injection, vehicle: methylcellulose (MC)
  T/C: 105 % of control [9 of 10 alive]
[4]
  T/C: 100 % of control [8 of 10 alive]
[5]
  T/C: 100 % of control
